Results reported in PubChem BioAssay AID624297 (National Center for Advancing Translational Sciences (NCATS), 2012).
Among all 340,000 compounds or so, about 6,200 (1.8%) were called active. The shares of active, inactive and inconclusive entries below differ from those in the screen. The call rests on the fitted dose curve; in most records, active means well fitted activation curve with a large enough effect; inconclusive means small, poorly fitted or top-dose-only effect; inactive means no such curve, though single readings can be large or run the other way. Potencies beside an inconclusive call are fits to weak or partial responses and may not hold up.

test: A quantitative high throughput screen for small molecules that induce DNA re-replication in SW480 colon adenocarcinoma cells.; further: nearly all actives have a fitted effect of over 55% in size; details: Hoechst DNA content imaging, 48 h; series mostly up to 46.1 µM
Outline: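 First, 250 cells per well were seeded. Next, compound or vehicle (23 nL) was pinned in, plates sat 48 hr at 37 C. Finally Hoechst was added for 40 min before fluorescence scanning.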
Potency means the concentration at half of the fitted maximal effect.

Row | Compound | Potency
1 | COc1cccc(C(C[N+](=O)[O-])c2c(C)[nH]n(-c3ccccc3)c2=O)c1 (stereo not drawn) | inconclusive: 23.1 µM [activator, single point]
2 | CC(O)c1nc2ccccc2n1CCCc1ccccc1 (stereo not drawn) | inconclusive: 0.206 µM [activator, full curve, poor fit]
3 | NS(=O)(=O)c1cccc(NC(=O)CSc2nnc(C3CC3)n2C2CC2)c1 | inconclusive: 29.1 µM [activator, single point]
4 | CCOc1ccc(S(=O)(=O)N2CCN(C(=O)c3oc4ccccc4c3C)CC2)cc1 | inconclusive: 6.51 µM [activator, partial curve, poor fit]
5 | CCCOc1ccc(/C=C/C(=O)OCC(=O)N(C)c2c(N)n(Cc3ccccc3)c(=O)[nH]c2=O)cc1OCC | inconclusive: 14.6 µM [activator, partial curve, poor fit]
6 | CCOC(=O)c1ccc(-n2c(CCC(=O)O)ccc2-c2cccs2)cc1 | inconclusive: 6.51 µM [activator, full curve, poor fit]
7 | CC1CC(C)CN(C(=O)CNC(=O)c2sc3ccccc3c2Cl)C1 (stereo not drawn) | inconclusive: 29.1 µM [activator, single point]
8 | CCN1C(=O)[C@@H]2[C@@H](c3ccc(-c4ccc(Cl)c(Cl)c4)c(OC)c3)N3CCC[C@@]3(C(=O)OC)[C@@H]2C1=O | inactive
9 | O=C(Nc1ccc2ncccc2c1)c1ccccc1 | inconclusive: 5.8 µM [activator, partial curve]
10 | Cc1ccn2c(CNCc3cnn(C)c3)c(C(=O)N3CCCCCC3)nc2c1 | inconclusive: 0.116 µM [activator, full curve, poor fit]
11 | C=C(C)COc1ccc(-c2nc(N)ncc2Oc2ccccc2OCC)c(O)c1 | inconclusive: 32.6 µM [activator, partial curve, poor fit]
12 | Cc1ccc(C)c(N2CCN(C(=O)c3ccc4c(c3)c(C)c(C)n4C)CC2)c1 | inconclusive: 29.1 µM [activator, single point]
13 | S=c1[nH]nc(C2CCCCC2)n1/N=C/c1ccc(Br)s1 | inconclusive: 23.1 µM [activator, partial curve, poor fit]
14 | CCc1ccccc1NC(=O)Nc1cc(F)ccc1F | active: 29.1 µM
15 | O=C(Nc1cccnc1)C1CCCN(S(=O)(=O)c2ccccc2)C1 (stereo not drawn) | inactive
16 | O=C1[C@@H]2[C@H]3CC[C@H](C3)[C@@H]2C(=O)N1O | inconclusive: 4.61 µM [activator, full curve, poor fit]
17 | O=[N+]([O-])c1ccc(N/N=C/c2c[nH]c3ccccc23)cc1 | inconclusive: 11.2 µM [activator, partial curve]
18 | COC(=O)N/N=C/c1ccccc1OCCOc1ccc(OC)cc1 | inconclusive: 29.1 µM [activator, single point]
19 | COC(=O)C1=C(C)NC(C)=C(C(=O)O[C@@H]2CCCN(Cc3ccccc3)C2)[C@@H]1c1cccc([N+](=O)[O-])c1 | inconclusive: 29.1 µM [activator, single point]
20 | C=CCn1cc(C(=O)NCc2ccc(Cl)cc2)c(=O)c2cc(S(=O)(=O)N(CC)CC)ccc21 | inconclusive: 5.17 µM [activator, full curve]
21 | O=[N+]([O-])c1ccc(N2CCCC2)nc1N1CCCC1 | inconclusive: 0.326 µM [activator, full curve, poor fit]
22 | Cc1cccc(NC(=O)Cn2cnc3c(oc4ccccc43)c2=O)c1C | inactive
23 | COc1ccc(C(C#N)=C2C=CC(=NO)C=C2)cc1 | inconclusive: 23.1 µM [activator, single point]

Row | Compound | Potency
24 | O=[N+]([O-])c1cccc2c(Cl)ccnc12 | inactive
25 | CCC(=O)Nc1cc(C(=O)OC(C(=O)c2ccc(C)c(C)c2)c2ccccc2)ccc1C (stereo not drawn) | inconclusive: 1.03 µM [activator, partial curve, poor fit]
26 | Cc1cc(C)cc(N(CCC(=O)Nc2nnc(C3CC3)s2)S(=O)(=O)c2ccc(Cl)cc2)c1 | active: 23.1 µM
27 | CC(C)C[C@H]1CN=C(Nc2ccccc2)N1CCC1CCCCC1 | inconclusive: 0.0731 µM [activator, partial curve, poor fit]
28 | CCN(CC)S(=O)(=O)c1cc(NC(=O)Cn2ncc(Cl)c(Cl)c2=O)ccc1C | inconclusive: 2.31 µM [activator, full curve, poor fit]
29 | CCc1n[nH]c(=S)n1/N=C/c1c(O)ccc2ccccc12 | inactive
30 | CCCCCC(=O)c1c(C)[nH]c(C(=O)OCC)c1C | inconclusive: 29.1 µM [activator, single point]
31 | C=C(C)C1(O)OC(=O)C=C1OC (stereo not drawn) | inconclusive: 5.8 µM [activator, partial curve]
32 | O=C(c1ccccc1)N1CCCC(C(=O)N2CCc3ccccc3C2)C1 (stereo not drawn) | inactive
33 | CCN(CC)CCNC(=O)c1ccc(NC(=O)Cc2cccc3ccccc23)cc1 | inconclusive: 20.6 µM [activator, single point]
34 | CSc1ccc(S(=O)(=O)NCc2ccc(C)cc2)cc1 | inactive
35 | CC(C)(C)OC(=O)N(CCc1ccccc1)Cc1cccc(OCc2cccc(NC(=O)/C=C/c3ccccc3)c2)c1 | inconclusive: 1.16 µM [activator, partial curve, poor fit]
36 | Cc1ccc(-c2cc(=O)c3cc(F)ccc3[nH]2)cc1 | inactive
37 | O=S(=O)(NC1CC2CCC1C2)c1ccc(Br)cc1 (stereo not drawn) | inconclusive: 2.06 µM [activator, partial curve, poor fit]
38 | CCNC(=S)Nc1ccc(Cl)c(C(F)(F)F)c1 | inconclusive: 6.51 µM [activator, full curve, poor fit]
39 | Cc1oc2c(O)c(O)ccc2c(=O)c1-c1ccccc1 | inconclusive: 29.1 µM [activator, single point]
40 | CC(Nc1nc(-c2ccc3c(c2)NC(=O)CO3)cs1)c1ccccc1 (stereo not drawn) | inactive
41 | COc1cc(OC)cc(C(=O)OCc2ccc([N+](=O)[O-])cc2)c1 | inconclusive: 29.1 µM [activator, single point]
42 | CCN(CC)c1ccc(C(=O)NNC(=O)c2cccn2C)cc1 | inconclusive: 5.8 µM [activator, partial curve, poor fit]
43 | COc1ccc(C(CNC(=O)c2cccc(S(=O)(=O)N3CCc4ccccc43)c2)N(C)C)cc1 (stereo not drawn) | inconclusive: 23.1 µM [activator, partial curve, poor fit]
44 | Cc1onc(-c2ccccc2)c1C1=N/C(=C\c2ccccc2F)C(=O)O1 | inactive
45 | COc1cc(C(C[N+](=O)[O-])c2c(N)n(C)c(=O)n(C)c2=O)ccc1O (stereo not drawn) | inconclusive: 23.1 µM [activator, partial curve, poor fit]
46 | Cc1nc2ccccc2n1CSc1ccccc1 | inactive

2 compounds picked at random from those above:
Row | Compound | Potency
8 | CCN1C(=O)[C@@H]2[C@@H](c3ccc(-c4ccc(Cl)c(Cl)c4)c(OC)c3)N3CCC[C@@]3(C(=O)OC)[C@@H]2C1=O | inactive
46 | Cc1nc2ccccc2n1CSc1ccccc1 | inactive

More entries follow:

Row | Compound | Potency
47 | Cn1cccc1C(=O)c1cccc([N+](=O)[O-])c1 | inconclusive: 0.13 µM [activator, full curve, poor fit]
48 | N#CC1C(=O)NC(c2ccccc2)=CC1c1ccccc1 (stereo not drawn) | inconclusive: 29.1 µM [activator, single point]
49 | CC1CCN(C(=O)COc2cccc3c2CCN(Cc2ccccc2)C3=O)CC1 | inconclusive: 35.5 µM [activator, partial curve, poor fit]
50 | O=C1C=C(c2ccc(F)c(Cl)c2)C[C@@H](c2ccc(F)cc2)C1 | inactive
51 | CC1CCN(c2ccc(NC(=S)NC(=O)c3ccco3)cc2)CC1 | inconclusive: 16.4 µM [activator, single point]
52 | COc1cc2cc(C)c3nnc(SCC(=O)Nc4cc(C)on4)n3c2cc1OC | inactive
53 | O=C(O)C1CC(O)CN1C(=S)Nc1ccccc1 (stereo not drawn) | inactive
54 | S=C(c1ccc(Cl)cc1)N1CCN(Cc2ccccc2)CC1 | inactive
55 | CCCCOc1ccc(-c2cc(C(=O)NNC(=S)NCC)c3ccccc3n2)cc1 | inactive
56 | Cc1ccc(S(=O)(=O)CCC(=O)N(CCCN2CCOCC2)c2nc3ccccc3s2)cc1 | inactive
57 | Cc1nnc2n1N=C(c1ccc(F)cc1F)CS2 | inactive
58 | CCCCNC(=S)NNC(=O)c1sccc1C | inconclusive: 29.1 µM [activator, single point]
59 | O=C(NNC(=O)c1ccc2ccccc2c1O)c1cccs1 | inconclusive: 23.1 µM [activator, single point]
60 | COc1ccc(CCNC(=O)C2CCCN(S(=O)(=O)N3CCCCCC3)C2)cc1OC (stereo not drawn) | inconclusive: 29.1 µM [activator, single point]
61 | O=C(NOC(=O)c1c(F)cccc1Cl)c1ccc(Cl)c(Cl)c1 | inactive
62 | C=CCn1cc(Cl)c(=O)n(CC=C)c1=O | inconclusive: 29.1 µM [activator, single point]
63 | c1ccc(C2=NN(c3ccccc3)C(c3ccco3)C2)cc1 (stereo not drawn) | inconclusive: 9.2 µM [activator, partial curve, poor fit]
64 | Oc1cccc2ccc(Nc3ccccn3)nc12 | inconclusive: 3.26 µM [activator, single point]
65 | CCN(CC(=O)NCc1ccc(Cl)cc1)C(=O)CCC(=O)c1ccc(C)cc1 | inconclusive: 23.1 µM [activator, partial curve, poor fit]
66 | CCOC(=O)c1c(-c2ccccc2)csc1/N=C/C1C(=O)CCCC1=O | inconclusive: 29.1 µM [activator, single point]
67 | O=C1CCCC2=C1C(c1ccco1)Nc1ccc(C(=O)c3ccccc3)cc1N2 (stereo not drawn) | inconclusive: 25.9 µM [activator, single point]
68 | COc1ccc(C(c2nnnn2Cc2ccccc2)N2CCN(c3nc4ccccc4s3)CC2)cc1OC (stereo not drawn) | inconclusive: 23.1 µM [activator, single point]

13 entries already listed, sorted by count of non-hydrogen atoms, falling.
Row | Compound | Potency
68 | COc1ccc(C(c2nnnn2Cc2ccccc2)N2CCN(c3nc4ccccc4s3)CC2)cc1OC (stereo not drawn) | inconclusive: 23.1 µM [activator, single point]
56 | Cc1ccc(S(=O)(=O)CCC(=O)N(CCCN2CCOCC2)c2nc3ccccc3s2)cc1 | inactive
60 | COc1ccc(CCNC(=O)C2CCCN(S(=O)(=O)N3CCCCCC3)C2)cc1OC (stereo not drawn) | inconclusive: 29.1 µM [activator, single point]
55 | CCCCOc1ccc(-c2cc(C(=O)NNC(=S)NCC)c3ccccc3n2)cc1 | inactive
67 | O=C1CCCC2=C1C(c1ccco1)Nc1ccc(C(=O)c3ccccc3)cc1N2 (stereo not drawn) | inconclusive: 25.9 µM [activator, single point]
65 | CCN(CC(=O)NCc1ccc(Cl)cc1)C(=O)CCC(=O)c1ccc(C)cc1 | inconclusive: 23.1 µM [activator, partial curve, poor fit]
66 | CCOC(=O)c1c(-c2ccccc2)csc1/N=C/C1C(=O)CCCC1=O | inconclusive: 29.1 µM [activator, single point]
51 | CC1CCN(c2ccc(NC(=S)NC(=O)c3ccco3)cc2)CC1 | inconclusive: 16.4 µM [activator, single point]
54 | S=C(c1ccc(Cl)cc1)N1CCN(Cc2ccccc2)CC1 | inactive
48 | N#CC1C(=O)NC(c2ccccc2)=CC1c1ccccc1 (stereo not drawn) | inconclusive: 29.1 µM [activator, single point]
53 | O=C(O)C1CC(O)CN1C(=S)Nc1ccccc1 (stereo not drawn) | inactive
58 | CCCCNC(=S)NNC(=O)c1sccc1C | inconclusive: 29.1 µM [activator, single point]
62 | C=CCn1cc(Cl)c(=O)n(CC=C)c1=O | inconclusive: 29.1 µM [activator, single point]
